The list shows a part of the results.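 Rule for the calls: active = mitochondrial OCR inhibition above 30% at 1 uM; inactive = 30% or less.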 Many values rest on one well or one pass, so single values are uncertain.

The assay has as its system Toxoplasma gondii RH tachyzoites. The experiment in a line: inhibition of mitochondrial O2 consumption rate (% inhibition (relative to pre-injection OCR and atovaquone/antimycin A control)); higher = stronger ETC inhibition. Particulars: 1 µM; injection port (sequential injection order): A.
In the case of `O=C(C1CCN(c2nnnn2-c2ccccc2)CC1)N1CCc2ccccc2C1`, the “inhibition of mitochondrial O2 consumption rate” value (shortened to “inhibition”) is inactive: -8.78.

With `CC(C)(C)OC(=O)N1CCN(c2nccc(-c3ccc(-c4ccc(Cl)cc4)s3)n2)CC1`, the “inhibition” value is inactive: -12.1.

For the compound `COc1ccc(-c2nc(-c3cccc(NC(=O)Cc4ccc(F)cc4)c3)no2)cc1OC`, the “inhibition” value is inactive: -2.36.

For `CCCCN(CCCC)c1c(C#N)cc(S(=O)(=O)Nc2ccccc2)cc1C#N`, the “inhibition” value is inactive: -9.63.

Regarding `N#Cc1nc(-c2ccccc2)oc1S(=O)(=O)c1ccc(Cl)cc1`, the “inhibition” value was inactive: -7.5.

`COc1ccc(-c2cc(NC(=O)c3ccc(F)cc3Cl)ccc2OC)cc1`: the “inhibition” value is inactive: -2.56.

For `NS(=O)(=O)c1cccc(-c2ccc3ncc(N4CCOCC4)nc3c2)c1`, the “inhibition” value was inactive: -13.1.

For the compound `Brc1cncc(-c2cc(NCCCn3ccnc3)nc(-c3ccccc3)n2)c1`, the “inhibition” value is inactive: -2.68.

Regarding `CC1=NN(c2nc3ccccc3s2)C(=O)C1Cc1cccc2ccccc12` (configuration not stated), the “inhibition” value was inactive: 0.116.

Regarding `FC(F)(F)c1cccc(-c2nc3c(NCc4ccncc4)nccc3[nH]2)c1`, the “inhibition” value was inactive: -16.9.

Take `O=C(c1[nH]nc2c1CCCC2)N1CCN(Cc2ccc3c(c2)OCO3)CC1`: the “inhibition” value was inactive: -4.39.

For the compound `O=C(CCC1CCCCC1)Nc1cccc(-c2nnc(-c3ccco3)o2)c1`, the “inhibition” value is inactive: 11.6.

Source of the values: the supplement of paper PMC10403144.
